The experiment deals with T1, CD151 tetraspanin (mouse (endogenous in epididymal sperm)) (UniProt O35566).
T1 sequence: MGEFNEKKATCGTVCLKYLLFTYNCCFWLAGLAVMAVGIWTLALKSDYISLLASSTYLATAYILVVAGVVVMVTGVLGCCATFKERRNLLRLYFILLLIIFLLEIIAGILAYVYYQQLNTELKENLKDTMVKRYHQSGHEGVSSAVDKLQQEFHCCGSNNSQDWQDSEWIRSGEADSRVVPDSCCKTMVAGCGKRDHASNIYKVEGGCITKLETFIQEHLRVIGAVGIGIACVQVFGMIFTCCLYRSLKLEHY
Briefly: co-IP; mouse epididymal sperm (5 x 10^7) lysed in 20 mM Tris-HCl, 137 mM NaCl, pH 8 with 1% CHAPS at 4 °C; precipitated with polyclonal anti-CD151 (ab125363) and Protein A/G agarose; blot with anti-α6 (F-6) or anti-α3 (H-43) integrin antibody; rabbit IgG as control.

No constants are given. Whether binding was seen depends on the method and setting. Binding seen in cells or lysates may run through a third protein. Some entries that bind do so weakly or less than the wild type.

From article PMC7062741 come the findings set out here.

B1: α6 integrin subunit (protein, UniProt Q61739 24-1091)
chain: FNLDTREDNVIRKSGDPGSLFGFSLAMHWQLQPEDKRLLLVGAPRAEALPLQRANRTGGLYSCDITSRGPCTRIEFDNDADPMSESKEDQWMGVTVQSQGPGGKVVTCAHRYEKRQHVNTKQESRDIFGRCYVLSQNLRIEDDMDGGDWSFCDGRLRGHEKFGSCQQGVAATFTKDFHYIVFGAPGTYNWKGIVRVEQKNNTFFDMNIFEDGPYEVGGETDHDESLVPVPANSYLGFSLDSGKGIVSKDDITFVSGAPRANHSGAVVLLKRDMKSAHLLPEYIFDGEGLASSFGYDVAVVDLNADGWQDIVIGAPQYFDRDGEVGGAVYVYINQQGKWSNVKPIRLNGTKDSMFGISVKNIGDINQDGYPDIAVGAPYDDLGKVFIYHGSPTGIITKPTQVLEGTSPYFGYSIAGNMDLDRNSYPDLAVGSLSDSVTIFRSRPVINILKTITVTPNRIDLRQKSMCGSPSGICLKVKACFEYTAKPSGYNPPISILGILEAEKERRKSGLSSRVQFRNQGSEPKYTQELTLNRQKQRACMEETLWLQENIRDKLRPIPITASVEIQEPSSRRRVNSLPEVLPILNSNEAKTVQTDVHFLKEGCGDDNVCNSNLKLEYKFGTREGNQDKFSYLPIQKGIPELVLKDQKDIALEITVTNSPSDPRNPRKDGDDAHEAKLIATFPDTLTYSAYRELRAFPEKQLSCVANQNGSQADCELGNPFKRNSSVTFYLILSTTEVTFDTTDLDINLKLETTSNQDNLAPITAKAKVVIELLLSVSGVAKPSQVYFGGTVVGEQAMKSEDEVGSLIEYEFRVINLGKPLKNLGTATLNIQWPKEISNGKWLLYLMKVESKGLEQIVCEPHNEINYLKLKESHNSRKKRELPEKQIDDSRKFSLFPERKYQTLNCSVNVRCVNIRCPLRGLDSKASLVLRSRLWNSTFLEEYSKLNYLDILLRASIDVTAAAQNIKLPHAGTQVRVTVFPSKTVAQYSGVAWWIILLAVLAGILMLALLVFLLWKCGFFKRSRYDDSIPRYHAVRIRKEEREIKDEKHMDNLEKKQWITKWNENESYS
Consider B1, for which the binding entry is listed as “binds”.

B2: α3 integrin subunit (protein, UniProt Q62470 33-1053)
chain: FNLDTRFLVVKEAVNPGSLFGYSVALHRQTERQQRYLLLAGAPRDLAVGDDYTNRTGAVYLCPLTAHKDDCERMDISEKSDPDHHIIEDMWLGVTVASQGPAGRVLVCAHRYTKVLWSGLEDQRRMVGKCYVRGNDLQLDPGDDWQTYHNEMCNSNTDYLQTGMCQLGTSGGFTQNTVYFGAPGAYNWKGNSYMIQRKDWDLSEYSYRGSEEQGNLYIGYTVQVGNAILHPTDIITVVTGAPRHQHMGAVFLLKQESGGDLQRKQVLKGTQVGAYFGSAIALADLNNDGWQDLLVGAPYYFERKEEVGGAVYVFMNQAGASFPDQPSLLLHGPSRSAFGISIASIGDINQDGFQDIAVGAPFEGLGKVYIYHSSSGGLLRQPQQIIHGEKLGLPGLATFGYSLSGKMDVDENLYPDLLVGSLSDHIVLLRARPVINILHRTLVARPAVLDPALCTATSCVQVELCFAYNQSAGNPNYRRNITLAYTLEADRDRRPPRLRFARSQSSVFHGFFSMPETHCQTLELLLMDNVRDKLRPIVIAMNYSLPLRMPDRLKLGLRSLDAYPVLNQAQAMENHTEVHFQKECGPDNKCDSNLQMRAAFLSEQLQPLSRLQYSRDTKKLFLSINVTNSPSSQRAGEDAHEALLTLEVPSALLLSSVRPSGTCQANNETILCELGNPFKRNQRMELLIAFEVIGVTLHTRDLPVLLQLSTSSHQDNLQPVLLTLQVDYTLQASLSLMNHRLQSFFGGTVMGEAAMKTAEDVGSPLKYEFQVSPVGDGLAALGTLVLGLEWPYEVTNGKWLLYPTEITIHSNGSWPCQPSGNLVNPLNLTLSDPGVTPLSPQRRRRQLDPGGDQSSPPVTLAAAKKAKSETVLTCSNGRARCVWLECPLPDTSNITNVTVKARVWNSTFIEDYKDFDRVRVDGWATLFLRTSIPTINMENKTTWFSVDIDSELVEELPAEIELWLVLVAVGAGLLLLGLIILLLWKCGFFKRARTRALYEAKRQKAEMKSQPSETERLTDDY
As for B2, the binding result was “no binding”.
